Source: patent EP0264914A2, “Process for producing L-phenylalanine” (KYOWA HAKKO KOGYO CO., LTD., priority 1986, dated 1988)
Some results were stated once for a whole list of compounds, not compound by compound.

Test system: DS
Assay: DS activity of the transformant carrying pCDS1, feedback inhibition
Type: biochemical
Settings: transformant of Corynebacterium glutamicum ATCC 39019 carrying pCDS1 (DS gene from K38)

Structure (SMILES): N[C@@H](Cc1ccccc1)C(=O)O [phenylalanine]
- inhibition of DS activity: released from inhibition
